According to article PMC5669953:
These are yes or no findings as the source states them, for the method shown. Binding seen in cells or lysates may run through a third protein. Some entries that bind do so weakly or less than the wild type.

Chains of the proteins cited; added tags and fusions are not shown. Residues count along the entry.
UniProt P05362, residues 28-532: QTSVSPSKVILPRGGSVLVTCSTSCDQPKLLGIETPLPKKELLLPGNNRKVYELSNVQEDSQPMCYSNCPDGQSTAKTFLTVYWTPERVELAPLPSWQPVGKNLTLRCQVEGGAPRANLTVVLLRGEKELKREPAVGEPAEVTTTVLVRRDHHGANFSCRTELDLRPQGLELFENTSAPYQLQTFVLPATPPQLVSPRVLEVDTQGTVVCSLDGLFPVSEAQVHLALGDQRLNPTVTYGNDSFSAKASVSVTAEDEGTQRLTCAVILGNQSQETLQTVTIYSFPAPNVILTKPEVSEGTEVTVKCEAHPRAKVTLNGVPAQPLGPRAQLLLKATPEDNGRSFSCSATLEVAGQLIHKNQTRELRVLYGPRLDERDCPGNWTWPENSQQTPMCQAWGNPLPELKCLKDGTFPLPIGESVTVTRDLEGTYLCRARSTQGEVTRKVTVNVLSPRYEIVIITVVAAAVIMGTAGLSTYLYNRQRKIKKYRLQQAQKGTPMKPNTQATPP
UniProt Q9UKT5: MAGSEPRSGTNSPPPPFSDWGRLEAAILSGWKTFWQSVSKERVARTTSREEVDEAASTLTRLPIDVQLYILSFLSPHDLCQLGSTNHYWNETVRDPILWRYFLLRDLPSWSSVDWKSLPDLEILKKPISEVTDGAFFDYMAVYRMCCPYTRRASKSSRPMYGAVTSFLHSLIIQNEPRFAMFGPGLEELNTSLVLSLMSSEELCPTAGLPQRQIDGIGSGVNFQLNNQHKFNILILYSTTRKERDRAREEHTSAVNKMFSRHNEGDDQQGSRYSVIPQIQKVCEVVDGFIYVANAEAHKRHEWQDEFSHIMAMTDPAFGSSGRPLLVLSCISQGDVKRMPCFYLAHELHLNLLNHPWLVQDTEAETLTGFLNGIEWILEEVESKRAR

Columns and labels:
[1] = target: Intercellular adhesion molecule-1 (ICAM-1), endogenous (human (endogenous in MDA-MB-231)) (UniProt P05362); assay: co-IP; endogenous proteins in lysate of metastatic breast cancer cells after treatment with a proteasome inhibitor; lysis buffer 40 mM Tris-HCl pH 8.0, 120 mM NaCl, 0.1% Nonidet-P40; primary antibody overnight at 4°C, Protein A-Agarose beads 2 h; western blot
[2] = target: ICAM-1-HA (UniProt P05362); assay: co-IP; HEK293T cells co-transfected for 48 hours with HA-tagged ICAM-1 constructs and FBXO4-Flag, MG132 for 6 hours before lysis; lysis buffer 40 mM Tris-HCl pH 8.0, 120 mM NaCl, 0.1% Nonidet-P40; Protein A-Agarose beads; western blot with anti-HA or anti-Flag
[3] = target: ICAM-1-HA (UniProt P05362); assay: proximity ligation; in situ PLA (Duolink) in fixed, permeabilised HEK293T cells transfected with ICAM-1-HA and FBXO4-Myc, 10 μM MG132 for 6 h; anti-Myc rabbit and anti-HA mouse primary antibodies; confocal microscopy

With “E3 ligase FBXO4 (F-box protein), endogenous (from UniProt Q9UKT5 1-387)” the binding [1] was “binds”.
FBXO4-Flag (from UniProt Q9UKT5 1-387) was tested, and the binding [2] was “binds”.
With FBXO4-Myc (from UniProt Q9UKT5 1-387) the binding [3] was “binds”.
